# Reference: PubChem BioAssay AID1508600 (Functional Genomics Laboratory (NCATS/FGL), 2020)
# About 3,700 (7%) of roughly 53,000 sequences were called active.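 Rule for the calls: active = gene knockdowns whose robust z-score for IL-1 alpha signal is at least 2 or at most -2, so actives lie on both sides; inactive = the rest.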 This is one part of the list.
# Assay: Components of the Cytosolic LPS Sensing Pathway: Gene Identification via Genome-wide siRNA Screen;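 note: robust z of the log signal after scaling to non-targeting control siRNA wells of the plate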
# Conditions: RAW264.7 macrophages, IL-1a HTRF, actives lie on both sides, screened at 100 nM (by protocol), cells primed 5 h with Pam3CSK4 first
# Method in brief: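 IL-1a HTRF of supernatants after 24 hour LipidA transfection of Pam3CSK4-primed (5 hours) RAW264.7 cells, 48h post-siRNA transfection (100 nM). Scores: percent of plate negative-control median, then log-based robust z-score.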
row,Sequence,z-score
1,GUCUAUCUUCAGCACAAACTT against Klrc3,active: 2.12
2,GGAUUUUUCAACUUAACGUTT against Get4,inactive: 1.6
3,GCAAAUCACCUACAAAAACTT against Zfp326,inactive: -1.02
4,GGAAAACAUUUAAACAGUGTT against Psmb11,inactive: 0.593
5,GGAAAUGAGAGCAUCCAUUTT against Cndp2,inactive: -1.37
6,GCACGGAAUUGUUGAGCUGTT against Maff,inactive: 0.0434
7,GUGCUCUAUGUCUUCACUGTT against Ltb4r2,inactive: -1
8,GGUGUCCGUAAAUGGAGUGTT against A430033K04Rik,inactive: 0.809
9,CGGAUAUUUACGAACUUACTT against Pitpnb,inactive: 1.24
10,GCACUUCGCGCAGUCUUCUTT against Zfp865,inactive: -1.49
11,GCACCAGUUCUACUUCACCTT against Fpr2,inactive: 0.45
12,GGAGAACUGAAGAAUCCAATT against Med11,inactive: 1.78
13,GGAGGAACUGAUCUUUCGATT against Gdnf,inactive: 1.15
14,GAAGAUGGUAGAGUCUACATT against Hcst,inactive: -0.849
15,GCUGCAGAGAAGAGCAAUGTT against Olfr872,inactive: -0.0504
16,CGUAUUGAUGUUGGGUAGCTT against Oas1c,inactive: 0.552
17,CAGGAUUCCUUGGACAUACTT against Olfr477,inactive: -0.559
18,GGUGGAAUGAGGAAACAACTT against Cck,inactive: -0.945
19,GCUUAAAUCCGACGAGAAGTT against Rrm2b,inactive: -1.12
20,GGUGAUGAUGUCAUACAAATT against Cav1,active: 3.12
21,GGUUCGUAUUCUCUUGGUGTT against Ifi44l,inactive: -0.701
22,GGUUACCUAUUGGAUGACATT against Muc19,inactive: -1.43

# An excerpt of these results, with tabs.
row	Sequence	z-score
5	GGAAAUGAGAGCAUCCAUUTT against Cndp2	inactive: -1.37
16	CGUAUUGAUGUUGGGUAGCTT against Oas1c	inactive: 0.552
20	GGUGAUGAUGUCAUACAAATT against Cav1	active: 3.12
21	GGUUCGUAUUCUCUUGGUGTT against Ifi44l	inactive: -0.701

# Later entries

row,Sequence,z-score
1,GGAAUUUAGAAAAUGUGACTT against Vmn1r227,active: -2.67
2,GCUUGACAUGUCCUCAGAGTT against Lsm14b,inactive: 0.568
3,GGCUAGUGUUUUCAACAAUTT against Atp10d,inactive: -1.03
4,GGAGAAUGUAGAUGAAGCUTT against Dhrs2,inactive: 0.179
5,GGGUAUUGCUGGACAACGUTT against Col1a1,active: 3.85
6,GGUCCAUUGCUAAAGACUGTT against Tcf19,inactive: 0.0971
7,GCCUACAAGCAGGUACUAUTT against Olfr30,inactive: -1.37
8,GGCAUCCUGUCUGUUAUCUTT against Ptdss1,inactive: -1.76
9,GCAAGAUGCAGGAUUGUAATT against Gprc5d,inactive: -0.852
10,GGAAAUGUGUACAAGAACCTT against Ms4a4b,inactive: 1.83
11,GGUAGACCUAGAACAGCACTT against Ttyh2,inactive: -0.495
12,GCAUGGAAUCACGAAGUAGTT against Cwc22,inactive: -0.42
13,GGUAUCACUACUUUUUAGUTT against Eri3,inactive: -0.742
14,GGCAGAUGUGAAAAGUGCATT against Ppcdc,inactive: 0.853
15,GGAACAUUUUGAGAUUUACTT against Abca5,inactive: 1.2
16,GGAUGAGGGCGACUACUUUTT against Thy1,inactive: 1.07
17,GGUCGCUGUGAAAAUAAUATT against Mark1,inactive: 0.825
18,GGUCCCAGUCUAUGAAAACTT against Pym1,inactive: 1.81
19,GGCAGAGGAGAAAAUCAAGTT against Cux2,inactive: -0.352
20,GGACAGAGUUACCUAGGCATT against Ticrr,active: -2.81
21,GGCUUUGGACUGUAUGACCTT against Ccdc159,inactive: -0.923
22,GGAUCUUCUCUGCCUAUAUTT against Arpc1b,inactive: -1.42

row,Sequence,z-score
1,GGAAUGUGUCUUCUCAAGUTT against A530021J07Rik,active: 2.35
2,CGAAACUACCUUCUCAAGCTT against Kdm3b,inactive: -1.6
3,GGGAAAACAGGUACGACUGTT against Odf1,inactive: -0.743
4,GGGAAAUGUUUUCCAAAGATT against Tep1,inactive: 0.776
5,GGAAGUUCUACACUCGUCUTT against Fzd2,inactive: -1.11
6,GGACUAUUCUACCAAGUACTT against Txnl4a,inactive: 0.162
7,CCCUCUGAACUAUAUGACUTT against Olfr700,inactive: -1.09
8,GGCAGAUCUAUUGACAAACTT against Nts,inactive: 0.939
9,CCUCAUUGUACCUUGCUGATT against Surf6,inactive: -0.954
10,ACUUCUACUGAAGUGAAUUTT against Krtap19-1,inactive: -1.1
11,GGUUUGUUUGUUUUUUGGUTT against Ajuba,active: 2.96
12,GGGUAGCUAAGAAAAAGAUTT against Rbm48,inactive: 0.864
13,GAAUCUUACCCUCUUUCUCTT against Olfr541,inactive: 1.18
14,GCAUAUCGCUUUUGUGAGCTT against E2f6,active: 2.31
15,CCUGGUUUACAUGUACGGGTT against Tap2,inactive: 0.494
16,CCAACCCUCCAUCAAAGAATT against Rnaseh2b,inactive: 1.91
17,GGCGAGAUCCUUCAAGCCUTT against Wdr6,inactive: 1.45
18,GGACUCUGACAAUUUUAUCTT against Dcaf8l,inactive: -0.0166
19,CCCACCACAGUAAAGGAACTT against Rwdd3,inactive: 1.29
20,CCACAGUCGCUUUCUUUUATT against Fam228b,inactive: -1.35
21,CCGUGAUCUUAAACCCUCUTT against Mapk7,inactive: -0.988
22,GGCAGCAGCUACUCCUAUATT against Krt6a,inactive: -1.82

row,Sequence,z-score
1,GGAGUAGCUCUUCUGGAUCTT against Kank3,inactive: 1.61
2,CCUGAAAGCUAAUAUGAAATT against Defb44-ps,inactive: 0.0593
3,CGCACCUGUAACUUAUCAGTT against Rac1,inactive: 0.099
4,GGAAGAAGAUAAAGAGCGGTT against Nrgn,inactive: -0.708
5,GGAGAAGAACGAGAAACGUTT against Nyap2,inactive: 0.904
6,GUACGUCAAGAGCCUGCGUTT against Fam110a,active: -2.65
7,GGUUGACUCUACAAAAUACTT against Muc5b,inactive: -0.656
8,GGGUGGACUAGGAGUGGAUTT against Cdhr4,inactive: 0.316
9,GCGAUGUGAGCAAAUGCCUTT against Twsg1,inactive: 0.656
10,CCCUUAGAGCUCUUAAAGATT against Slc25a51,inactive: -0.549
11,GGCCAAGGAUCCAUCUGUATT against Magee1,inactive: 0.11
12,GACUGCUGUUUAGGAAUCGTT against Znhit3,inactive: 0.787
13,GGAACUGAUGAGAACACUATT against Gbp2b,inactive: 0.892
14,GGAGCAGAUGGUUUUCGAGTT against Copz2,inactive: -0.154
15,CCUGAAAGAUAACAAGUGGTT against Rnls,inactive: 0.0112
16,GGGUUUUCUUUCUUUCUCUTT against Otub1,inactive: 0.0369
17,GCCUUUGAGUUUUUCAUGUTT against Olfr314,inactive: 0.98
18,GGCCGUUUGUGGUCUACUGTT against Trmt6,inactive: 0.858
19,CCUAGGCACAGCUUUGUAUTT against Apof,inactive: -0.595
20,GGCAAUUCAAACAAUGCAGTT against Orm1,inactive: -1.41
21,GGUACGGUAUGGAGAUCGGTT against Atpaf2,inactive: 0.593
22,GGAUCACAGAAGGUCCCUATT against Nox4,inactive: -1.91

row,Sequence,z-score
1,CCCUACAAGAAUUUUGAGATT against Fam166a,inactive: -1.42
2,GGUUCCUUACGAUGUGUCATT against Nsg1,inactive: -0.68
3,CCAAAAUUCGAACAAGUGATT against Mat2b,inactive: 0.199
4,GGCCCAAUGUCACUCACUATT against Sirt3,inactive: -0.498
5,CCUUUCUAGGUGACUACUUTT against Pemt,inactive: 1.81
6,GGAAUGAAAAGGUAUGUGATT against Wipi1,inactive: -0.914
7,GCAGCUAAGCAACUUCAAUTT against Cox20,inactive: 0.659
8,GCCAAAGGACAGUUGAAGUTT against Mogs,inactive: 0.795
9,GAUAUCUUUAGCAAUGACATT against Olfr159,inactive: 0.538
10,GCUGUAUCGGGUUAAUGACTT against Cpne7,inactive: -0.55
11,GCUCCUCGUCUCAUGAUAATT against Smc4,inactive: 0.214
12,GGUUCUGGCUGGAAUCUACTT against Gnl1,inactive: -0.987
13,GGGACCUGAUUGUUGUUUATT against Bcap31,inactive: -0.787
14,GGUGAUGCUUCAUAAAAAUTT against Utp6,inactive: -1.69
15,GGUACCAGAGGAUUCUGAUTT against Pcdhga8,inactive: 0.153
16,GGCAUGUGUGCCUAAAACCTT against Sprr4,inactive: 0.204
17,GGUAGAGCAGAAUUGAAAATT against Bmx,inactive: 1.36
18,GGGACUUCAUCCUCAUUUCTT against Smcr8,inactive: -1.43
19,GCUGUCUCUACGUUGGAGATT against Adamts2,inactive: 0.145
20,CCUGCGUCUCCAGUAGUUUTT against Reps1,inactive: 0.932
